Laboratory results as given in PMC9788671.

Chains of the proteins cited; added tags and fusions are not shown.
UniProt Q9NZV8: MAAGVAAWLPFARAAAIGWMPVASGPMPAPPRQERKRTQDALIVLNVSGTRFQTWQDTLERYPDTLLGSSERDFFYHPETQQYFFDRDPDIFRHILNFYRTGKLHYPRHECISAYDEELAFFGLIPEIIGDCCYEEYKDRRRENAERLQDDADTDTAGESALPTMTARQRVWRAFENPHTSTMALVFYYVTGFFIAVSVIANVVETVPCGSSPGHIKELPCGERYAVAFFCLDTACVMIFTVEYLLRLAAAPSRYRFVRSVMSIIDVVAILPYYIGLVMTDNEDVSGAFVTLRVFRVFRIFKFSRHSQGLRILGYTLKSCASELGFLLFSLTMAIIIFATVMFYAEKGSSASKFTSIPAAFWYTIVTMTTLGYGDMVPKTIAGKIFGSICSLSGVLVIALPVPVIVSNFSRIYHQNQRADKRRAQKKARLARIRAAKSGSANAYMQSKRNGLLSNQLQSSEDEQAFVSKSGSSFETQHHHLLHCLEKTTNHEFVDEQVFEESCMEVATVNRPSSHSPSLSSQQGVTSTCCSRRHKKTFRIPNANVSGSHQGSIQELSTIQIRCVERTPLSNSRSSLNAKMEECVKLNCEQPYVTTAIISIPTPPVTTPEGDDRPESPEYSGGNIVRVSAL

Columns and labels:
TAP-Kv4.2 (human) [1] = target: TAP-Kv4.2 (human) (UniProt Q9NZV8); experiment: affinity purification with mass spectrometry; TAP-Kv4.2 expressed by lentivirus in rat hippocampal neurons, harvested at DIV14; weak lysis buffer of the kit (0.1% NP-40); streptavidin resin, then calmodulin resin; gel cut into high and low molecular weight fragments; no MS of the control sample
TAP-Kv4.2 (human) [2] = target: TAP-Kv4.2 (human) (UniProt Q9NZV8); experiment: affinity purification with mass spectrometry; TAP-Kv4.2 expressed by lentivirus in rat hippocampal neurons, harvested at DIV14; strong lysis buffer (1% Triton X-100, 0.5% deoxycholate in PBS, pH 7.4); streptavidin resin, then calmodulin resin; gel cut into high and low molecular weight fragments; no MS of the control sample

Row | Binder | binding (TAP-Kv4.2 (human) [1]) | binding (TAP-Kv4.2 (human) [2])
1 | KChIP4 (protein, UniProt Q99MG9 1-250) MNVRRVESISAQLEEASSTGGFLYAQNNTKRSIKERLMKLLPCSAAKTSSPAIQNSVEDELEMATVRHRPEALELLEAQSKFTKKELQILYRGFKNECPSGVVNEETFKEIYSQFFPQGDSTTYAHFLFNAFDTDHNGAVSFEDFIKGLSILLRGTVQEKLNWAFNLYDINKDGYITKEEMLDIMKAIYDMMGKCTYPVLKEDAPRQHVETFFQKMDKNKDGVVTIDEFIESCQKDENIMRSMQLFENVI | binds | binds
2 | Rala (protein, UniProt P63322 1-206) MAANKPKGQNSLALHKVIMVGSGGVGKSALTLQFMYDEFVEDYEPTKADSYRKKVVLDGEEVQIDILDTAGQEDYAAIRDNYFRSGEGFLCVFSITEMESFAATADFREQILRVKEDENVPFLLVGNKSDLEDKRQVSVEEAKNRADQWNVNYVETSAKTRANVDKVFFDLMREIRARKMEDSKEKNGKKKRKSLAKRIRERCCIL | binds | binds
3 | Atp5c1 (protein, UniProt P35435 1-273) ATLKDITRRLKSIKNIQKITKSMKMVAAAKYARAERELKPARVYGTGSLALYEKAEIKGPEDKKKHLIIGVSSDRGLCGAIHSSVAKQMKNDMAALTAAGKEVMIVGIGEKIKSILYRTHSDQFLVSFKDVGRKPPTFGDASVIALELLNSGYEFDEGSIIFNQFKSVISYKTEEKPIFSFSTVVAAENMSIYDDIDADVLQNYQEYNLANIIYYSLKESTTSEQSARMTAMDNASKNASDMIDKLTLTFNRTRQAVITKELIEIISGAAALD | binds | binds

Next, values leading:

Row | binding (TAP-Kv4.2 (human) [1]) | binding (TAP-Kv4.2 (human) [2]) | Binder
4 | binds | binds | Sf3b2 (protein, UniProt D3ZMS1 1-878) MAAEHPEPPKGELQLPPPPPPGHYGAWAAQELQAKLAEIGAPIQGSREELVERLQTYTRQTGIVLNRPVLRGEDGDKAAPPPMSAQLSGIPMPPPPLGLPPLQPPPPPPPPPPGLGLGFPMAHPPNLGPPPPLRVGEPVALSEEERLKLAQQQAALLMQQEERAKQAAVLMEQERQQEIAKMGTAVPRPPQDMGQLGVRTPLGPRVAAPVGPVVPTPTVLPMGAPVPRPRGPPPPPGDENREMDDPSVGPKIPQALEKILQLKESRQEEMNSQQEEEEMETDTRSSLGQSASETEEDTVSTSKKEKNRKRRNRKKKKKPQRVRAASSESSGDREKDSARSRGSDSPAADVEIEYVTEEPEIYEPNFIFFKRIFEAFKLTDDVKKEKEKEPEKLDKMENSAVPKKKGFEEEHKDSDDDSSDDEQEKKPEAPKLSKKKLRRMNRFTVAELKQLVARPDVVEMHDVTAQDPKLLVHLKATRNSVPVPRHWCFKRKYLQGKRGIEKPPFELPDFIKRTGIQEMREALQEKEEQKTMKSKMREKVRPKMGKIDIDYQKLHDAFFKWQTKPKLTIHGDLYYEGKEFETRLKEKKPGDLSDELRISLGMPVGPNAHKVPPPWLIAMQRYGPPPSYPNLKIPGLNSPIPESCSFGYHAGGWGKPPVDETGKPLYGDVFGTNAAEFQTKTEEEEIDRTPWGELEPSDEESSEEEEEEESDEDKPDETGFITPADSGLITPGGFSSVPAGMETPELIELRKKKIEEAMDGSETPQLFTVLPEKRTATVGGAMMGSTHIYDMSTVMSRKGPAPELQGVEVALAPEELELDPMAMTQKYEEHVREQQAQVEKEDFSDMVAEHAAKQKQKKRKAQPQDSRGGSKKYKEFKF
5 | binds | binds | Slc25a4 (protein, UniProt Q05962 1-298) MGDQALSFLKDFLAGGIAAAVSKTAVAPIERVKLLLQVQHASKQISAEKQYKGIIDCVVRIPKEQGFLSFWRGNLANVIRYFPTQALNFAFKDKYKQIFLGGVDRHKQFWRYFAGNLASGGAAGATSLCFVYPLDFARTRLAADVGKGSSQREFNGLGDCLTKIFKSDGLKGLYQGFSVSVQGIIIYRAAYFGVYDTAKGMLPDPKNVHIIVSWMIAQSVTAVAGLVSYPFDTVRRRMMMQSGRKGADIMYTGTVDCWRKIAKDEGRKAFFKGAWSNVLRGMGGAFVLVLYDEIKKYV

Results are given in words; binding and its absence hold for the method and conditions named. In cells and extracts the contact can be indirect. A yes stands for co-enrichment or nearness to the bait. Other partners may have been found.
